{
  "sequences": {"note": "The chains behind the UniProt entries cited, without tags or fusion partners.", "UniProt O17695": "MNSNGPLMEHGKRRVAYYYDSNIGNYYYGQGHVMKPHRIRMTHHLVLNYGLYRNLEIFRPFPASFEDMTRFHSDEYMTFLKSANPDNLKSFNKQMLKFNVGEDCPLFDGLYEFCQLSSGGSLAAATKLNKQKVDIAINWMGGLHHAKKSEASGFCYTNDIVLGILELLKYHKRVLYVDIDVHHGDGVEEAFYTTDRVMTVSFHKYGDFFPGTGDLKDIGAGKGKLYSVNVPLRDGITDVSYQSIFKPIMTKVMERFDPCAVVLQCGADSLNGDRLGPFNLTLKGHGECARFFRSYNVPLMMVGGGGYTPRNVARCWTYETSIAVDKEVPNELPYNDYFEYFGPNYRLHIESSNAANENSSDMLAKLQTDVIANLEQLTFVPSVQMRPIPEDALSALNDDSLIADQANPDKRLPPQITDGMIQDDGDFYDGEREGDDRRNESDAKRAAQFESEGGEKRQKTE", "UniProt G5EBZ4": "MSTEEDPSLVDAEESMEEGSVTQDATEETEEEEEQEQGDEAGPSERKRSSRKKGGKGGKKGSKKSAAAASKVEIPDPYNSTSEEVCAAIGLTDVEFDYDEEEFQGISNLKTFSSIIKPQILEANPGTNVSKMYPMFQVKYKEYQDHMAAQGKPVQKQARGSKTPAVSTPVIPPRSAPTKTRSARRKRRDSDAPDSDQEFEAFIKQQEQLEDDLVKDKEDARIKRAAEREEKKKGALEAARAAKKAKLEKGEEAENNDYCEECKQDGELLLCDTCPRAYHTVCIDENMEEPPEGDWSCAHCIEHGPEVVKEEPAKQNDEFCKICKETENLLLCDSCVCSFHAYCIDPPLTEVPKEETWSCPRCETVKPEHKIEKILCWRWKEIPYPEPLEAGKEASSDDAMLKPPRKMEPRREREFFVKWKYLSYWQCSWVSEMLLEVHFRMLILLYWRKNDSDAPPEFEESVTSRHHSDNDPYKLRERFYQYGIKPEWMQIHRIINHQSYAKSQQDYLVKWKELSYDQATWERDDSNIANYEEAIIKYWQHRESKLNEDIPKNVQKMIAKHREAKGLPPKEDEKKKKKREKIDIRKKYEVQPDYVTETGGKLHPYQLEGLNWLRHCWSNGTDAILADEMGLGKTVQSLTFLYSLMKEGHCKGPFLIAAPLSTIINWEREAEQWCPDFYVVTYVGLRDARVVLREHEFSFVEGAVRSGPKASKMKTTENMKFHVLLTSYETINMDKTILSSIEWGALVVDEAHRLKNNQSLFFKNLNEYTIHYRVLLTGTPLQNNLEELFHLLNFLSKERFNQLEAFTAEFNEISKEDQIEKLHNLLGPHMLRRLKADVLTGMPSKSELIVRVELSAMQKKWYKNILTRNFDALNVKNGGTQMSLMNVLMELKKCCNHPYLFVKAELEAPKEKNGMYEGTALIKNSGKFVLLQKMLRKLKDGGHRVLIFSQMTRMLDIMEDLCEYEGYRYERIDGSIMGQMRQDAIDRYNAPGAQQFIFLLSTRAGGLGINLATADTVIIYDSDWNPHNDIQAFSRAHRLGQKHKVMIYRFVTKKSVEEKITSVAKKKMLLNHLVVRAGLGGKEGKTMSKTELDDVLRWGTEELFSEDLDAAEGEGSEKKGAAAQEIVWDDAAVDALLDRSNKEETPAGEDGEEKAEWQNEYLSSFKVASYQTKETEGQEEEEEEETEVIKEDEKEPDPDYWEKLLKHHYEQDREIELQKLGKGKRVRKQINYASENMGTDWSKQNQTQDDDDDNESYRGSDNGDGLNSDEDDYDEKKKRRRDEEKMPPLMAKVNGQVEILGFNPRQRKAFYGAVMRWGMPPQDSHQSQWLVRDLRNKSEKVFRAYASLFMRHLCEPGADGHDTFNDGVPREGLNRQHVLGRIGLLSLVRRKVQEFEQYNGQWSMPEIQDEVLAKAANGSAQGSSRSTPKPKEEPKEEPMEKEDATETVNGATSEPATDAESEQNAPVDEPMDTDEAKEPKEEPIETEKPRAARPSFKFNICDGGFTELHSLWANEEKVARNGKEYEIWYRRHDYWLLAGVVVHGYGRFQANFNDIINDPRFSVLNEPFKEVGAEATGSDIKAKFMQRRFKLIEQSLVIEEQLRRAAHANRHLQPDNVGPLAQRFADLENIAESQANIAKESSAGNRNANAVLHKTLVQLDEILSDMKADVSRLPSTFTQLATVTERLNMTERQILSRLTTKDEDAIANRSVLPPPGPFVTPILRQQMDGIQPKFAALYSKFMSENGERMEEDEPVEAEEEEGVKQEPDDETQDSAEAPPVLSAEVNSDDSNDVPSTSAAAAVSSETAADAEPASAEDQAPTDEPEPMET"},
  "source": "paper PMC6072134",
  "molecules": {"B1": {"name": "AKIR-1::GFP (protein, UniProt Q966L3 1-218)", "chain": "MACGLALKRPLQHEYESFLTDETYNGEAKRARTQCPPFRAQMGTIAATLPSTSTFAQKFKEQEESVFQAATLMTRLSRNQLKTYLSSEVKNLRKRKAIPRSNDFDDDGDQRGDGCSSNYSKAYRAPSSPKSGSDSEGEAPSTSVTDRSSAKREFTMANVQMICERLLKQQEIRLRNEFEMVLTKKLDEQHQQYVQFAAEQLNSKCVSTGDDYSYSYLS"}},
  "key": {"[1]": {"molecular_target": "T1, AKIR-1::GFP (C. elegans) (UniProt Q966L3)", "T1 sequence": "B1 chain", "experiment": "co-IP; complexes immunopurified with an anti-GFP antibody from control or D. coniospora-infected worms expressing AKIR-1::GFP (the strain used for mass spectrometry and the single copy insertion strain); Western blot with anti-HDA-1 and anti-LET-418"}, "[2]": {"molecular_target": "T2, CEH-18::TY1::GFP::3xFLAG (C. elegans) (UniProt P41934)", "T2 sequence": "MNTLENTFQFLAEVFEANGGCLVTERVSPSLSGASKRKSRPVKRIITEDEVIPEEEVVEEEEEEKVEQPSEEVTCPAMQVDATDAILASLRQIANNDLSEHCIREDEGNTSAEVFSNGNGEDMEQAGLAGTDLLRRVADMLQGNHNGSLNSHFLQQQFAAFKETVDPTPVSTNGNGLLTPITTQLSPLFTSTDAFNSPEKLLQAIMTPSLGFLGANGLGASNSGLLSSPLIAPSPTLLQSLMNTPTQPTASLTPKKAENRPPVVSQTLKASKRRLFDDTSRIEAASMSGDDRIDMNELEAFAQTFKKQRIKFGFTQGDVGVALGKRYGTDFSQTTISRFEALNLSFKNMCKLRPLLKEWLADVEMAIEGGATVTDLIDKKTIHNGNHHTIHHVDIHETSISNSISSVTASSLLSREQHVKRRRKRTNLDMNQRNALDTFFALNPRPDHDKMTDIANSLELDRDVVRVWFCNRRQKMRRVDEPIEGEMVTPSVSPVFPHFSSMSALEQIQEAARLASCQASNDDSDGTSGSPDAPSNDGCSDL", "experiment": "co-IP; anti-FLAG (M2) immunoprecipitation from lysate of mixed-stage IG1665 worms co-expressing AKIR-1::GFP and CEH-18::TY1::GFP::3xFLAG, 200 μg of total protein, Dynabeads Protein G; anti-HA as unrelated control antibody; Western blot with anti-FLAG and anti-GFP"}},
  "note": "These are yes or no findings as the source states them, for the method shown. In cells and extracts the contact can be indirect. Some binding calls cover weakened binding; strength is not graded here. Tags and fused reporters may be left off the sequences shown.",
  "data": [
    {"molecule": "HDA-1 (from UniProt O17695 1-461)", "values": [
      {"measurement": "binding", "setting": "[1]", "result": "binds"}
    ]},
    {"molecule": "LET-418 (from UniProt G5EBZ4 1-1829)", "values": [
      {"measurement": "binding", "setting": "[1]", "result": "binds"}
    ]},
    {"molecule": "B1", "values": [
      {"measurement": "binding", "setting": "[2]", "result": "binds"}
    ]}
  ]
}
